Experiment [1] deals with T1, human MerTK-his protein (human, UniProt Q12866 21-505).
T1 construct: extracellular domain; also called hMerTK-His; human MerTK protein
T1 sequence (looked up): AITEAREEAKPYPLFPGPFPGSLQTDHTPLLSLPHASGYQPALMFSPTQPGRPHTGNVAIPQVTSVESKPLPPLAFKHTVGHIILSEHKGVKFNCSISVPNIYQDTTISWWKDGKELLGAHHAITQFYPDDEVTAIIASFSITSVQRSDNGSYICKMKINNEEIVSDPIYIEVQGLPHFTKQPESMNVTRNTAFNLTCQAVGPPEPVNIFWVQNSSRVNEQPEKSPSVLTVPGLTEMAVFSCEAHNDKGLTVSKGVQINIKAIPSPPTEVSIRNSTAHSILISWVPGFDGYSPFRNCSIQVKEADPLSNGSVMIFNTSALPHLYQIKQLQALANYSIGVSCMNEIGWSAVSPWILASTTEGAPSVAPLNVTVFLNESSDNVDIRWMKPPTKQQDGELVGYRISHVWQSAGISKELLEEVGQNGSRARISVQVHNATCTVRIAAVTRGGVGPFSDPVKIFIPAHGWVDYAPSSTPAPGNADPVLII
In words: ELISA, coated human MerTK-his (FIG. 7). For orientation: An ELISA detects its analyte on a solid surface through an enzyme-linked reagent.

Experiment [2] concerns the target T1, human MerTK-his protein. Briefly: ELISA, coated human MerTK-his. As to the method:
To evaluate the binding activity, the chimeric mAbs were subjected to ELISA test. Briefly, 96-well plates were coated with human or cyno MerTK-his protein at 2 μg/mL in PBS, 100 μL/well at 4° C. overnight, then blocked with 150 μL/well of 1% BSA. Five-fold dilutions of MerTK antibodies starting from 20 nM were added to each well and incubated for 1 hour at room temperature. The plates were washed with PBS/Tween-20 and then incubated with goat anti-human IgG Fe antibody conjugated with Horse Radish Peroxidase (HRP) for 30 minutes (mins) at room temperature. After washing, the plates were developed with TMB substrate and subsequent stop solution was added to complete the reaction. The signal from each well was read by spectrophotometer at OD 450 nm.

These results are taken from patent US20260028422A1 (CONCEPT TO MEDICINE BIOTECH, published 2026).

Residue numbers refer to the chain shown, from its start. No constants are given. Whether binding was seen depends on the method and setting. Some entries that bind do so weakly or less than the wild type. Where a sequence is shown, tags or fusion partners need not be part of it.

B1: 10F7D9 Hu-13 (antibody, V domains shown)
VH: QVQLVQSGSELKKPGASVKVSCKASGYTFTNYGMNWVRQAPGQGLEWMGWINTYTGEPTYADDFKGRFVFSLDTSVSTAYLQISSLKAEDTAVYYCARYGHYAWFAYWGQGTLVTVSS
VL: EIVLTQSPDFQSVTPKEKVTITCRASSSVSYMHWYQQKPDQSPKPWIYATSNLASGVPSRFSGSGSGTDFTLTINSLEAEDAATYFCQQWGTKPLTFGQGTKLEIK
Consider B1, for which the binding result in experiment [1] and in experiment [2] was “binds” each time.

B2: 10F7D9 Hu-18 (antibody, V domains shown)
VH: B1 VH with V20I, S84N, S85N, Y95F, R98T
VL: B1 VL
B2: the binding result in experiment [1] and in experiment [2] was “binds” throughout.

B3: 10F7D9 Hu-16 (antibody, V domains shown)
VH: B1 VH with V2I, E46K, Y95F, R98T
VL: B1 VL
With B3, the binding entry in experiment [1] and in experiment [2] was “binds” in each case.

B4: 10F7D9 Hu-15 (antibody, V domains shown)
VH: B1 VH with V2I, Y95F, R98T
VL: B1 VL
For B4, the binding entry in experiment [1] and in experiment [2] was “binds” in each case.

B5: 10F7D9 Hu-17 (antibody, V domains shown)
VH: B1 VH with V2I, R38K, E46K, Y95F, R98T
VL: B1 VL
Regarding B5, the binding entry in experiment [1] and in experiment [2] was “binds” in each case.
